Measured values published in patent US20220023387A1.
No constants are given. Whether binding was seen depends on the method and setting. Some binding calls cover weakened binding; strength is not graded here.

Amino acid sequences for entries named in this document (tags omitted). Residues count along the entry.
UniProt P40224, residues 22-89: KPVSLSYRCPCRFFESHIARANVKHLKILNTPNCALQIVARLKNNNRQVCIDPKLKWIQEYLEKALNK
UniProt P63158: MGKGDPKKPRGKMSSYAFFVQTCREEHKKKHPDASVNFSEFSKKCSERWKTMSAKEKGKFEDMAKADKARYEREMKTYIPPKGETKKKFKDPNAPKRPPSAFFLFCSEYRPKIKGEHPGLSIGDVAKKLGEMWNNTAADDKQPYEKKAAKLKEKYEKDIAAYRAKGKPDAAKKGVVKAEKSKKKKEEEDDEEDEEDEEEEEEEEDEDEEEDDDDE

Target: CXCL12, endogenous, in mouse plasma (mouse) (UniProt P40224)
Assay: hybrid sandwich ELISA on plasma (capture anti-CXCL12, detection anti-HMGB1)

## HMGB1 (High Mobility Group Box 1), endogenous, in mouse plasma (from UniProt P63158 1-215)
  binding: binds
